# Measurements reported in the supplement of paper PMC6411743.
# By UniProt entry, the sequences of proteins in these tests, tags left out. Where a name states a change or a piece, a line headed by the entry shows the natural chain unless it says otherwise.
# UniProt O96028: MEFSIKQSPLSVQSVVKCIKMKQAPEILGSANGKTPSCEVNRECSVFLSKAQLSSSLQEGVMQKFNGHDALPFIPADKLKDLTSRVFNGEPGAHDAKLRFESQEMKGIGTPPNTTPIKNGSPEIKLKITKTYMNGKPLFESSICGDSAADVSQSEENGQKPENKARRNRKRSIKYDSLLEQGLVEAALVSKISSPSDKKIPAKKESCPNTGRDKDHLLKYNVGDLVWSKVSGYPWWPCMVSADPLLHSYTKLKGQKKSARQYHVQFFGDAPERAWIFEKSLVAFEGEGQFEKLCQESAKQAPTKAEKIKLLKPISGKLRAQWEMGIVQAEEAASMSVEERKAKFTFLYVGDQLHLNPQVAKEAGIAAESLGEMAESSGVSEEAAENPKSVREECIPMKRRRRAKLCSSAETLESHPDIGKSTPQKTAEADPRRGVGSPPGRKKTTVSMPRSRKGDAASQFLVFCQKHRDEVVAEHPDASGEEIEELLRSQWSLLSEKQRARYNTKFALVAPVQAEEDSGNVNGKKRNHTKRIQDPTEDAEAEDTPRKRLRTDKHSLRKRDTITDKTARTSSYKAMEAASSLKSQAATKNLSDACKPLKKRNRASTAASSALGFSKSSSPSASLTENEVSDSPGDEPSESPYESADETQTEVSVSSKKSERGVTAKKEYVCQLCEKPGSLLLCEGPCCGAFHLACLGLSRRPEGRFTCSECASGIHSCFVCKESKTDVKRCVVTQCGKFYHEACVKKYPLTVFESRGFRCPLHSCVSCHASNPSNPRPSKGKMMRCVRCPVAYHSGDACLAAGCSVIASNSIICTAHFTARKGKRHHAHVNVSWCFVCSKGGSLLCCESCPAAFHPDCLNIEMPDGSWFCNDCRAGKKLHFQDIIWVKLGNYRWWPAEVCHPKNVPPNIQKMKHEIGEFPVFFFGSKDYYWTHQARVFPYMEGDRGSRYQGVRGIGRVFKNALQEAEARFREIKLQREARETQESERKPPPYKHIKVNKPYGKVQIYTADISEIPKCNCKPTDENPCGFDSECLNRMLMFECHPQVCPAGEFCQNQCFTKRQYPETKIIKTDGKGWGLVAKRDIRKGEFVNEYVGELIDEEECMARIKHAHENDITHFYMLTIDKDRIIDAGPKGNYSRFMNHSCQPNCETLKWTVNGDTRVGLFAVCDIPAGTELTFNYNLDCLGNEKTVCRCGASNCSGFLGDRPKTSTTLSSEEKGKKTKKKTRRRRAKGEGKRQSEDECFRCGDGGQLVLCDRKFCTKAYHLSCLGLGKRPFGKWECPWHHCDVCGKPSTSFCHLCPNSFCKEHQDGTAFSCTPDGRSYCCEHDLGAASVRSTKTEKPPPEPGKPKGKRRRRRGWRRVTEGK
# UniProt P07737, whole entry: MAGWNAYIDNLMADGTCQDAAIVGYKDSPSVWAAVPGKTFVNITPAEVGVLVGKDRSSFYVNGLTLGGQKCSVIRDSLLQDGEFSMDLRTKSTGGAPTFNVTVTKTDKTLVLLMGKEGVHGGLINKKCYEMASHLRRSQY
# UniProt P09012, whole entry: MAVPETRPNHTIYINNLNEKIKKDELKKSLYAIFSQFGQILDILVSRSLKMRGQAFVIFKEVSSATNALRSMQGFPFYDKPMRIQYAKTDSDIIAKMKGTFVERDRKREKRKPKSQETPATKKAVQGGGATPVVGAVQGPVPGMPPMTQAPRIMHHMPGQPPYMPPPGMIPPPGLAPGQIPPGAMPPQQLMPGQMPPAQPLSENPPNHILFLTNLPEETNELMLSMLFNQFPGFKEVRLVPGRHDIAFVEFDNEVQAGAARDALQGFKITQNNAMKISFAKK
# UniProt P08243: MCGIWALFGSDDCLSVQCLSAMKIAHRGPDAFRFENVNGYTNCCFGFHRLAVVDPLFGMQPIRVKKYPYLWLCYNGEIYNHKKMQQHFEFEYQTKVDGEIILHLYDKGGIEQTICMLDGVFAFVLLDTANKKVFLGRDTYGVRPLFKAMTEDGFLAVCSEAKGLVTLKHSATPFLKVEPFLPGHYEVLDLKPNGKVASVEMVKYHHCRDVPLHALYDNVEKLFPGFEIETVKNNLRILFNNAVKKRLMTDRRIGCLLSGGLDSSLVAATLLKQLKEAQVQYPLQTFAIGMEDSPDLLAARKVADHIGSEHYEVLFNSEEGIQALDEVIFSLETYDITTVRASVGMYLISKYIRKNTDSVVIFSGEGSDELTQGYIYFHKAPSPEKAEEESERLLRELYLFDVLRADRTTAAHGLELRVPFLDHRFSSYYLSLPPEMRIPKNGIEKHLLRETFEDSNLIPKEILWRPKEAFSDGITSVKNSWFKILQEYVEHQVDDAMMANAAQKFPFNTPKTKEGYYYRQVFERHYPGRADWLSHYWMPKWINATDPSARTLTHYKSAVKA
# UniProt P05423: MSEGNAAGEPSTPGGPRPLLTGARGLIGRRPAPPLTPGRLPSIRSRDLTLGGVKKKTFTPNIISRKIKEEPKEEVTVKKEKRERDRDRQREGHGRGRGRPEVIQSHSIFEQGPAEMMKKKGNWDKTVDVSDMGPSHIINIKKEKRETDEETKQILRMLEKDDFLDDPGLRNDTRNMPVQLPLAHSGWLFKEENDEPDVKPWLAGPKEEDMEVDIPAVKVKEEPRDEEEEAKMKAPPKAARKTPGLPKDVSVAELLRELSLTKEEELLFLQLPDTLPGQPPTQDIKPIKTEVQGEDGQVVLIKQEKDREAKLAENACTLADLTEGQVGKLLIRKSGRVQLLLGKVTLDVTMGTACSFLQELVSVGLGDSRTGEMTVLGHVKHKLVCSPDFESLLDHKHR
# UniProt P15374: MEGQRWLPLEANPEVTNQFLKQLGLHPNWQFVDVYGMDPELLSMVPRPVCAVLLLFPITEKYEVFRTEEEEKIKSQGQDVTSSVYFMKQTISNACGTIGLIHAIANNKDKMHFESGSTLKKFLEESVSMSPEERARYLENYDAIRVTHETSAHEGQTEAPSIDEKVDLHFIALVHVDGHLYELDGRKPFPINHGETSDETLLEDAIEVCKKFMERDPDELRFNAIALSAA
# UniProt P06493, whole entry, looked up: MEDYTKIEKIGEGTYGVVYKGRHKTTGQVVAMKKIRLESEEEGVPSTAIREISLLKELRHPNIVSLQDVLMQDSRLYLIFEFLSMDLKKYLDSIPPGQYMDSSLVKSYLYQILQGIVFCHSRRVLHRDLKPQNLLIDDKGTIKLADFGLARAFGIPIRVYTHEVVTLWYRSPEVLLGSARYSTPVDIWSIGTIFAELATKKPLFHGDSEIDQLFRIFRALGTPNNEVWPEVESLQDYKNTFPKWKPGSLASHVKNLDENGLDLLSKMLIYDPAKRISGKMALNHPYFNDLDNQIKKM
# UniProt P14550: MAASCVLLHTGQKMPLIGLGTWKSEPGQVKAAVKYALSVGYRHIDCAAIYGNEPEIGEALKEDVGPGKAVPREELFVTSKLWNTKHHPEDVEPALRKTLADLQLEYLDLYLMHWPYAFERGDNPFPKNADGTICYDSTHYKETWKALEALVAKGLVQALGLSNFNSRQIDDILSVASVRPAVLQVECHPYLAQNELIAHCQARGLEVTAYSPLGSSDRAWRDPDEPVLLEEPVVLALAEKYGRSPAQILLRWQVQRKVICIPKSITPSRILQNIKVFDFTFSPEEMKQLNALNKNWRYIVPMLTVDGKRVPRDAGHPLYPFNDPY
# UniProt P10746: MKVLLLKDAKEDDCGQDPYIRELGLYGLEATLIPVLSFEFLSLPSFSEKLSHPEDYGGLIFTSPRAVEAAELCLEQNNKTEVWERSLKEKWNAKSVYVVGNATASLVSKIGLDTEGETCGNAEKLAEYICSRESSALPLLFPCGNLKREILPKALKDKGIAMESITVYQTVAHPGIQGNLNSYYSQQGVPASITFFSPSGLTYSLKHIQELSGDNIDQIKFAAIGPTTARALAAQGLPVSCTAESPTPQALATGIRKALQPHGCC
# UniProt P11177, whole entry: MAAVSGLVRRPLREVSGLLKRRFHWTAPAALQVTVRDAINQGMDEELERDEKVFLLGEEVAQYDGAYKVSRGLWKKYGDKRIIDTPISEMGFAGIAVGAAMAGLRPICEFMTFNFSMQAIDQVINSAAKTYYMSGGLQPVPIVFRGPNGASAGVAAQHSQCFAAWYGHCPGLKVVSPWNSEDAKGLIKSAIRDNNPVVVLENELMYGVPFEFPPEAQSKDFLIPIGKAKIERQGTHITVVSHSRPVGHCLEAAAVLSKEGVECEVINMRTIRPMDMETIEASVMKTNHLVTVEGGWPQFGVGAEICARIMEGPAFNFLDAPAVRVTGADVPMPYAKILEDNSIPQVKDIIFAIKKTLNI
# UniProt P08579, whole entry: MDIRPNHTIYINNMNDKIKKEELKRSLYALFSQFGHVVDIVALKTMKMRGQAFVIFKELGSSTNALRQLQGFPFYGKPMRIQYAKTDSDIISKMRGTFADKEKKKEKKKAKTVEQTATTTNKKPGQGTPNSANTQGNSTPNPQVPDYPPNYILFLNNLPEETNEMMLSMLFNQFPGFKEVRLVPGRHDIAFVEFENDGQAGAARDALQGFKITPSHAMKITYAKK
# UniProt Q01081: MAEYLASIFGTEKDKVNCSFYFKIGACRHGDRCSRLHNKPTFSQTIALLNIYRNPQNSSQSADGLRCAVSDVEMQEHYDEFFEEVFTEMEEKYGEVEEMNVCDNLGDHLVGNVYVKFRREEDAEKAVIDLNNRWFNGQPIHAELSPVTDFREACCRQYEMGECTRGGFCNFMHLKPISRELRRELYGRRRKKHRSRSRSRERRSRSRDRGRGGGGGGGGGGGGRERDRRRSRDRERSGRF
# UniProt P13995: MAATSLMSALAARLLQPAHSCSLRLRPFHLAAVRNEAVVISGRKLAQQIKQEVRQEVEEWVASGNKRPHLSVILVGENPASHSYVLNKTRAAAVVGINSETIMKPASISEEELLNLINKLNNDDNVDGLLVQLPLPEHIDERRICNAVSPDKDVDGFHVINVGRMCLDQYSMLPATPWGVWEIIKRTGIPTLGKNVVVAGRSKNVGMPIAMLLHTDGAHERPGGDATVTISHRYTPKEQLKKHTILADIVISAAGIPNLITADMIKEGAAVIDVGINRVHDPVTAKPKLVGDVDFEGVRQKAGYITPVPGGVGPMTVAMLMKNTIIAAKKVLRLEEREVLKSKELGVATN
# UniProt P11388: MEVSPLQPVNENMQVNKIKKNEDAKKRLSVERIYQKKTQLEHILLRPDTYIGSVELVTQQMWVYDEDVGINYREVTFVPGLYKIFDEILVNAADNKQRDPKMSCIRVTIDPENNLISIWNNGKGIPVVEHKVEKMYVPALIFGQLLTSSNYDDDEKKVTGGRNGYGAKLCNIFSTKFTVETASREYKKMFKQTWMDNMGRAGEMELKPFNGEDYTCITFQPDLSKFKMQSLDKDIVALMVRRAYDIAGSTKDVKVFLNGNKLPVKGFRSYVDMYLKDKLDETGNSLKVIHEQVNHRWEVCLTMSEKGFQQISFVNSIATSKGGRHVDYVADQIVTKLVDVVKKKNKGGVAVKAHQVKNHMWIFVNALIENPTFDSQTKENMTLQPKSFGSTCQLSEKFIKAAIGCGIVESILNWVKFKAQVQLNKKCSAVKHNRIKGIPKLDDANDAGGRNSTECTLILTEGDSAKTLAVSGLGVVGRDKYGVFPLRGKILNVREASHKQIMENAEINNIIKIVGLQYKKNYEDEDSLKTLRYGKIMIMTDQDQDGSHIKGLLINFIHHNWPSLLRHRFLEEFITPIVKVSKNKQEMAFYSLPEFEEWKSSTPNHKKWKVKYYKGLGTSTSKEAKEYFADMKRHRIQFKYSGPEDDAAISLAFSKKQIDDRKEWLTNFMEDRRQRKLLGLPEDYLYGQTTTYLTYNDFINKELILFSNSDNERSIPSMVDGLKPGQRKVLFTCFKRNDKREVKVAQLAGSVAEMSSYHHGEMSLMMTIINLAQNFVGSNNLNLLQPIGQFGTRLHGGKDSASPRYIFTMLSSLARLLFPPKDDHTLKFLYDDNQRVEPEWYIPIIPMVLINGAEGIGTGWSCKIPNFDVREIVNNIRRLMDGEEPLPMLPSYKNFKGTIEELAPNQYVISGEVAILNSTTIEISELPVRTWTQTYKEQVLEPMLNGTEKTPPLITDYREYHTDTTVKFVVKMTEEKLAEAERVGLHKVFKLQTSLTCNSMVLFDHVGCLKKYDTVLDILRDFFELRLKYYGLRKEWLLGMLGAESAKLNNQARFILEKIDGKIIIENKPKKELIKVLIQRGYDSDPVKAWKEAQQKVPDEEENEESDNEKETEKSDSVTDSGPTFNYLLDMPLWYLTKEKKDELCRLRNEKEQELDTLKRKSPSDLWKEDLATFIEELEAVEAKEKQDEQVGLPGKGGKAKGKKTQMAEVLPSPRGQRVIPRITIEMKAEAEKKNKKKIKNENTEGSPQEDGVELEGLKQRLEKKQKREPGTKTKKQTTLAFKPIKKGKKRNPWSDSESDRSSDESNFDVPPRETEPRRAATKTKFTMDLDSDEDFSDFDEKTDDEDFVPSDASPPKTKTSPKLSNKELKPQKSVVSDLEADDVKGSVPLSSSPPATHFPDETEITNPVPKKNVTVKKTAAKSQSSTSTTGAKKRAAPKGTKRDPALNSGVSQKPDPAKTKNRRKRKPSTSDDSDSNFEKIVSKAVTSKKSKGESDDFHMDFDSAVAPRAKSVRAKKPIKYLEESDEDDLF
# ± gives the standard deviation of the averaged measurements. Only a part is listed here, and it is no random draw. Small differences around the control level are noise.
# Compound: Nc1ncnc2c1ncn2[C@@H]1O[C@H](COP(=O)(O)OP(=O)(O)OP(=O)(O)O)[C@@H](O)[C@H]1O [adenosine triphosphate]
# Experiment: NP40-soluble protein abundance relative to vehicle (solubility fold change) (ratio); higher = more soluble protein in presence of ATP
# Settings: concentration: 0.5mM
# In short: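 Values are fold changes against the detergent-processed vehicle, based on vsn-normalised intensities. Jurkat crude lysate was treated at eight concentrations from 0.1 to 10 mM (10 min at room temperature, then 3 min at 37 °C), solubilised with 0.8% NP40 and benzonase, ultracentrifuged and analysed by TMT-labelled LC-MS/MS over three independent experiments.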
row,Target,NP40-soluble protein abundance
1,CST3 (UniProt P01034),0.918 ± 0.09
2,UniProt O96028 and related entries,1.22 ± 0.083
3,PFN1 (UniProt P07737),0.951 ± 0.056
4,UniProt P06576 and related entries,1.1 ± 0.16
5,SNRPA (UniProt P09012),0.981 ± 0.064
6,NRAS (UniProt P01111),1.02 ± 0.05
7,EIF2S1 (UniProt P05198),1.05 ± 0.064
8,UniProt P08243 and related entries,1.11 ± 0.15
9,POLR3D (UniProt P05423),0.9808 ± 0.0084
10,UCHL3 (UniProt P15374),1.03 ± 0.09
11,GAA (UniProt P10253),0.999 ± 0.02
12,UniProt P06493,1.09 ± 0.052
13,AKR1A1 (UniProt P14550),1.01 ± 0.052
14,UROS (UniProt P10746),0.972 ± 0.057
15,UniProt P09471-2,1.01 ± 0.032
16,HMGN2 (UniProt P05204),1.18 ± 0.24
17,UniProt P12931 and related entries,1.01 ± 0.072
18,XRCC5 (UniProt P13010),1.04 ± 0.047
19,UniProt P11177 and related entries,1.11 ± 0.09
20,SNRPB2 (UniProt P08579),0.984 ± 0.011
21,UniProt P12268 and related entries,1.11 ± 0.14
22,P0DN76 and related entries (UniProt Q01081+P0DN76),2.03 ± 0.081
23,MTHFD2 (UniProt P13995),1.05 ± 0.051
24,CTSD (UniProt P07339),0.994 ± 0.024
25,UniProt P11388 and related entries,1.21 ± 0.043
26,UniProt P13674 and related entries,1.01 ± 0.045
27,P0DN79 and related entries (UniProt P35520+P0DN79),0.956 ± 0.074

# Looked up above.
# NP40-soluble protein abundance with UCHL3 (UniProt P15374) is entered as 1.03 ± 0.09
# NP40-soluble protein abundance with EIF2S1 (UniProt P05198) is entered as 1.05 ± 0.064
